Series [1] is described as follows: Recovery yields from spiked tissue homogenates and blood. Set-up: species or system mouse. Particulars: acetone/ACN 0.1% TFA extraction, HPLC-UV.
A short description of series [2]: general procedure: Fmoc solid-phase peptide synthesis; pre-loaded Wang resin (Fmoc-Gly-Wang; Fmoc-Tyr(tBu)-Wang); HBTU/HOBt/DIPEA; HATU/DIPEA for PAPTPL-I coupling. Conditions: conjugation step.

Experimental findings from article PMC7914648 (Pharmaceuticals, 2021) are described below.

For some of these results: HELM strings list residues between dots; [ac] is acetyl, [am] amide, other brackets name non-standard units.

Regarding `O=C([O-])C(F)(F)F.O=c1ccc2c(OCCCCOc3ccc(CCC[P+](c4ccccc4)(c4ccccc4)c4ccc(OCCCc5ccc(O)cc5)cc4)cc3)c3ccoc3cc2o1` [PAPTPL, (4-(3-(4-hydroxyphenyl)propoxy)phenyl)(3-(4-(4-((7-oxo-7H-furo[3,2-g]chromen-4-yl)oxy)butoxy)phenyl)propyl)diphenylphosphonium 2,2,2-trifluoroacetate], in series [1] (PAPTPL spiked into blood), the “recovery yield from blood” value is on record as 80 ± 8%. In addition, in series [1] (PAPTPL spiked into homogenate), the “recovery yield from heart” value is 57 ± 6%, the “recovery yield from kidneys” value came out at 55 ± 1%, the “recovery yield from liver” value was found to be 82 ± 15% and the “recovery yield from spleen” value was determined as 99 ± 5%.
In series [2], “PEPTIDE1{[PAPTPL-CO].I.G.R.K.K.R.R.Q.R.R.R.P.P.Q.G}$$$$V2.0” showed a conjugation yield of 17%.
The same measure, in the same setting: then “PEPTIDE1{[PAPTPL-CO].I.T.F.F.Y.G.G.S.R.G.K.R.N.N.F.K.T.E.E.Y}$$$$V2.0”, with 11%.
